Reference: PubChem BioAssay AID1259405 (NCATS, 2018)
In all, the deposit lists about 50,000 reagents; below is a random part of them. Over the whole deposit, about 4,000 (8%) were called active. 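Mouse siRNA library applied to hamster cells; one well for each siRNA.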 Entries without a mark were called inactive. Reagents against one gene are numbered here. Reagent sequences are not shown.

Assay: 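Mouse-designed siRNAs used to find CHO productivity engineering targets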 (primary screen)
System: Chinese hamster CHO-K1 ovary cells with stable secreted eGFP expression
Knock-down reagent: single siRNA against mouse genes, 0.8 pmol siRNA per well (2 µl of 400 nM stock)
Duration: 3 days
Measurement: 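Percent of the per-plate non-targeting control median for intracellular GFP per well by laser scanning cytometry and for cell viability by ATP luminescence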
Direction: GFP, % of control: higher = more GFP per well, higher productivity; viability (ATP), % of control: higher = more viable cells (more ATP)
Rule for the call: 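a knock-down is called active if GFP reaches 120% or more of non-targeting control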

no.	target gene	reagent	GFP, % of control	viability (ATP), % of control
1	4933411G06Rik	1	78.7	87.7
2	4933411G06Rik	2	92.3	82.9
3	4933411G06Rik	3	110	127
4	N4bp3	1	71.5	83.1
5	N4bp3	2	87.9	85.6
6	N4bp3	3	82	95
7	Sik2	1	103	72.5
8	Vmn1r17	1	11.7	9.13
9	Vmn1r17	2	55.3	60.6
10	Vmn1r17	3	61.8	93.8
11	Ppp3ca	1	116	106
12	Ppp3ca	2	64.8	60.7
13	Ppp3ca	3	82.6	72.3
14	Gzf1	1	26.9	40.2
15	Gzf1	2	46.6	60.5
16	Gzf1	3	56.8	79.9
17	Ei24	1	121 (active)	103
18	Ei24	2	135 (active)	46.1
19	Ei24	3	112	69.2
20	Oas1c	1	139 (active)	101
21	Oas1c	2	71	78.5
22	Oas1c	3	69.1	64.8
23	Hoxb8	1	72.5	104
24	Hoxb8	2	86.1	69
25	Hoxb8	3	49.1	37.3
26	Tlk1	1	70.1	68.8
27	Tlk1	2	119	72.3
28	Tlk1	3	56.2	60.1
29	Ccne1	1	40.5	65
30	Ccne1	2	117	94.6
31	Ecsit	1	80.2	86
32	Ecsit	2	142 (active)	98.9
33	Or7g31	1	79.9	75.5
34	Or7g31	2	62.6	37.7
35	Or7g31	3	52.2	47.7
36	Zdhhc15	1	64.5	51.1
37	Zdhhc15	2	89.9	85.5
38	Zdhhc15	3	69.4	67.4
39	Ifi205	1	92.3	80.9
40	Ifi205	2	94.1	67.6
41	Ifi205	3	88.3	109
42	Vip	1	71	65.5
43	Vip	2	68.5	69.4
44	Vip	3	109	51.8
45	Cbx8	1	75.3	71.2
46	Cbx8	2	71.4	81.5
47	Cbx8	3	74.1	57.9
48	Mknk2	1	42.9	25.4
49	Mknk2	2	58.4	74.4
50	Mknk2	3	72.5	73.2
51	Kif2c	1	74.1	77.5
52	Kif2c	2	72.1	72
53	Tas2r130	1	87.7	92.4
54	Tas2r130	2	63.1	56.4
55	Tas2r130	3	45.3	58.3
56	Abcd2	1	71.4	90.1
57	Abcd2	2	88	76.8
58	Abcd2	3	69.5	78.5
59	Podxl	1	41.5	44.3
60	Podxl	2	93	82.9
61	Podxl	3	65.9	64.9
62	Or13a1	1	72.9	49.1
63	Or13a1	2	82.9	88.8
64	Or13a1	3	40.9	45.2
65	Pik3c2a	1	76.3	71.5
66	Pik3r2	1	84.2	95
67	Pik3r2	2	180 (active)	90
68	Gck	1	50.7	39.2
69	Cyp2j6	1	63.4	84.3
70	Cyp2j6	2	83.3	89
71	Cyp2j6	3	73.2	80.9
72	Kcnv1	1	129 (active)	92
73	Kcnv1	2	101	65
74	Kcnv1	3	76.7	77.6
75	Cd200l1	1	44.2	58.2
76	Cd200l1	2	98.7	96
77	Cd200l1	3	87.7	84.6
78	Dock4	1	101	82.2
79	Dock4	2	90.1	87.5
80	Dock4	3	62.6	67.3
81	Cln8	1	53.1	90.3
82	Cln8	2	102	63.8
83	Cln8	3	44.5	83
84	Lpin1	1	57.9	62.3
85	Lpin1	2	91.4	85.3
86	Lpin1	3	82.5	75.3

Entries listed so far with an active call, once more:
target gene	reagent	GFP, % of control	viability (ATP), % of control
Ei24	1	121 (active)	103
Ei24	2	135 (active)	46.1
Oas1c	1	139 (active)	101
Ecsit	2	142 (active)	98.9
Pik3r2	2	180 (active)	90
Kcnv1	1	129 (active)	92
